In PubChem BioAssay AID2685 (National Center for Advancing Translational Sciences (NCATS), 2010) one finds cell number change and AC50 data, which are given here for 37 molecules.

The nature of this test: qHTS Assay for Lipid Storage Modulators in Drosophila S3 Cells.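 As to cell number change: cells counted by Cell Tracker Red CMTPX staining in the red channel.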 Particulars: BODIPY lipid droplet fluorescence, 18-24 h; for cell number change: measured here: cell count max response, cells fed with added oleic acid. The procedure, abridged:
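Drosophila S3 cells loaded with oleic acid (400 uM, as added) and compounds at several concentrations; lipid droplets imaged by 488-nm laser-scanning cytometry, 500–530 nm intensity and object ratio to cell channel. Percent activity normalized to 20 uM Triacsin C.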
(In qHTS, concentration-response curves come from the screen itself.)

The mark [1] stands for this setting: measured here: cell number channel AC50, cells fed with added oleic acid.
The mark [2] stands for this setting: measured here: lipid fluorescence (Fed channel) AC50, cells fed with added oleic acid.

SMILES strings stand for the structures. The list shows a part of the results. Further columns of the screen follow, without active or inactive calls. Compounds called inactive in the main read-out are mostly missing here. Words in brackets tell the shape of the fitted curve; partial curves, single points and poor fits give uncertain potencies.

The term AC50 denotes the midpoint of the concentration-response curve, whichever way the signal moves. Low values mean greater potency, high ones weaker potency. On to `Oc1ccc(C[C@@H]2CNCCN2CCc2cccc(F)c2)cc1`, for which the cell number change was -32.1%. Moreover, the AC50 under setting [1] was 0.103 µM [falling, full curve, poor fit]. Further, under setting [2], the AC50 was 0.206 µM [falling, full curve].

`O=C(COC(=O)C1CC1)NCCc1ccc(Cl)cc1`: the cell number change is -4.02%.

In the case of `COc1cccc(/C=N/NC(=O)CNC(=O)c2ccc(S(=O)(=O)N3CCCC3)cc2)c1OC`, the cell number change worked out at 21.5%. For the same molecule, under setting [1], the AC50 is 3.66 µM [rising, single point].

In the case of `O=C(N/N=C/c1cc(Br)c(O)c(Br)c1)c1cccc(C(F)(F)F)c1`, the cell number change was -14.2%. The AC50 under setting [1] is 6.51 µM [rising, single point].

As for `Cc1ccc(Cl)cc1NC(=O)Cn1cc(C(F)(F)F)cc(Cl)c1=O`, the cell number change was 20.4%.

Regarding `Cc1ccccc1OCC(=O)NCCCNC(=O)c1ccccn1`, the cell number change came out at 10%.

In the case of `COc1cc2c(cc1OC)C(C)N(C(=O)c1cc3c(=O)oc4ccc(C)cc4c3s1)CC2` (configuration not stated), the cell number change is -45.1%. For the same molecule, the AC50 under setting [1] is 23.1 µM [falling, single point]. Also, the AC50 under setting [2] was 25.9 µM [falling, single point].

Turning to `CCc1nnc(NC(=O)CSc2nnc(COc3ccccc3)n2-c2ccc(C)cc2)s1`, the cell number change stood at 5.53%. Besides, the AC50 under setting [2] was 0.731 µM [falling, single point].

Turning to `CN(C)S(=O)(=O)N1CCN(c2ccc([N+](=O)[O-])cc2)CC1`, the cell number change is -3.3%. The concentration at half-maximal activity (AC50) under setting [1] is 0.58 µM [falling, partial curve, poor fit]. Further, under setting [2], the AC50 is 0.231 µM [falling, full curve, poor fit].

With `CC1(C)CC2CC(C)(CN2C(=O)COC(=O)c2cc(Cl)cc(Cl)c2N)C1` (configuration not stated), the cell number change is -1.69%. Also, the AC50 under setting [2] is 18.4 µM [rising, single point].

`Cc1ccc(-c2nc(CSc3nc4ccccc4c(=O)n3CCO)cs2)cc1`: the cell number change was found to be 26.1%. Also, under setting [2], the AC50 is 14.6 µM [rising, partial curve].

On to `CCC(=O)c1ccccc1OCCCN1CCC(Cc2ccccc2)CC1`, for which the cell number change was -25.1%. Besides, under setting [2], the AC50 is 1.84 µM [falling, partial curve].

Regarding `O=C(CSc1ccccc1C(=O)N1CCN(c2ccccc2)CC1)N1CCCC1`, the cell number change is -14.6%. For the same molecule, the AC50 under setting [2] was 0.0517 µM [falling, full curve, poor fit].

Consider `Cc1cc(C)n2c(Nc3ccc4c(c3)OCCO4)c(-c3ccccc3)nc2n1`, for which the cell number change stood at 54.4%. The AC50 under setting [1] is 0.411 µM [rising, full curve]. For the same molecule, the AC50 under setting [2] is 1.3 µM [rising, full curve].

For `O=C1C2CC=CCC2C(=O)N1Cc1nnc(-c2ccccc2Br)o1` (configuration not stated), the cell number change worked out at 11.5%. Also, under setting [2], the AC50 was 2.59 µM [rising, partial curve, poor fit].

Turning to `COc1ccc(-c2c(-c3cc(OC)cc(OC)c3)n(C)c3ccc(-c4ccc(N(C)C)nc4)cc23)cc1`, the cell number change was determined as 9.25%. In addition, the AC50 under setting [1] was 0.259 µM [falling, full curve, poor fit]. In addition, the AC50 under setting [2] is 29.1 µM [rising, partial curve, poor fit].

Regarding `CCOC(=O)c1nn(-c2ccccc2)c(C#N)c1NC(=O)c1nn(CC)cc1Br`, the cell number change was determined as 67.5%. Besides, the AC50 under setting [1] is 0.651 µM [rising, partial curve]. Under setting [2], the AC50 was 0.651 µM [rising, partial curve, poor fit].

As to `CCN(CC(=O)Nc1c(F)cccc1F)C(=O)CSCC(=O)Nc1ccc(OC)cc1`, the cell number change is -16.8%. Further, under setting [2], the AC50 is 29.1 µM [falling, single point].

Regarding `COc1ccccc1/C(C)=N/Oc1cc(N)cc([N+](=O)[O-])c1`, the cell number change is -57.6%. The AC50 under setting [1] is 25.9 µM [falling, partial curve, poor fit].

With `COc1ccc(-n2nc(C(=O)N(C)C3CCCCC3)c3ccccc3c2=O)c(OC)c1`, the cell number change was found to be 11.3%. Under setting [2], the AC50 was 14.6 µM [rising, single point].

Regarding `Cn1nnnc1SCC(=O)Nc1ncc(Cl)cc1Cl`, the cell number change was -2.35%. The AC50 under setting [2] was 20.6 µM [rising, single point].

On to `CCc1ccc(N2CC(C(=O)Nc3ccc(F)cc3)CC2=O)cc1` (configuration not stated), for which the cell number change was -9.57%.

Regarding `CC(=O)N1CCN(C(=O)c2cccc(S(=O)(=O)NCc3ccccc3)c2)CC1`, the cell number change is 28.3%. Besides, the AC50 under setting [2] is 0.731 µM [falling, single point].

For `CCOC(=O)N1CCN(C(=O)c2cc3c(s2)-c2c(C)cccc2OC3)CC1`, the cell number change was -91.6%. The AC50 under setting [1] is 29.1 µM [falling, single point].

Regarding `CCCCCN(C(=O)CCC(=O)OC(C)C(=O)Nc1cccc(C#N)c1)c1c(N)n(CCCC)c(=O)[nH]c1=O` (configuration not stated), the cell number change was -80%.

Take `COCCN1C(=O)c2[nH]nc(-c3ccccc3O)c2C1c1ccc(OC)cc1` (configuration not stated): the cell number change stood at 10.1%. The AC50 under setting [2] was 2.31 µM [rising, partial curve].

`CCN(CC)CCN(C(=O)c1cc(Cl)sc1Cl)c1nc2cc3c(cc2s1)OCO3`: the AC50 under setting [2] was 35.5 µM [rising, single point].

In the case of `N#Cc1cnn2ccc(-c3cc(N4CCOCC4)ccc3[N+](=O)[O-])nc12`, the cell number change stood at 25.5%. Further, under setting [1], the AC50 is 6.51 µM [falling, single point].

In the case of `CC(=O)Nc1cccc2ncccc12`, the cell number change was determined as 20.7%. Further, the AC50 under setting [2] was 18.4 µM [rising, single point].

As to `O=C(COC(=O)COc1ccccc1)NCc1ccccc1`, the cell number change was -0.88%.

Take `COc1ccc(C(C[N+](=O)[O-])C2(c3ccc(OC)c(OC)c3)C(=O)c3ccccc3C2=O)cc1` (configuration not stated): the cell number change was -66%. Further, under setting [1], the AC50 is 29.1 µM [falling, single point]. Moreover, under setting [2], the AC50 was 6.51 µM [falling, partial curve].

Take `CCOC(=O)N1CCC(NC(=O)c2sc(-n3cccc3)nc2C)CC1`: the cell number change is -1.28%. Moreover, the AC50 under setting [2] was 0.326 µM [falling, partial curve, poor fit].

As for `O=C(CCCCCN1C(=O)c2ccccc2C1=O)Nc1ccc2c(c1)OCCO2`, the AC50 is, setting by setting: under setting [1], 2.06 µM [rising, partial curve]; under setting [2], 6.51 µM [rising, single point].

Take `CCOC(=O)c1c(NC(=O)CN2C(=O)C(=O)N(CC(C)C)C2=O)sc(C)c1CC`: the cell number change stood at 118%. Further, the AC50 under setting [1] is 20.6 µM [rising, partial curve].

`COc1ccc(CNC(=O)COC(=O)c2n[nH]c3ccccc23)cc1`: the cell number change is -8.65%.

As for `Cc1c(CCOC(=O)C23CC4CC(CC(C)(C4)C2)C3)sc[n+]1CC(=O)c1ccccc1`, the cell number change is -14.2%. Also, under setting [2], the AC50 was 5.8 µM [falling, full curve, poor fit].

For `Cc1cc([N+](=O)[O-])ccc1NCc1ccccc1`, the cell number change stood at 19%.
